Measurements reported in publication PMC13598120.

Chains of the proteins cited; added tags and fusions are not shown. Lines headed by an entry give the natural chain unless they say otherwise; changes in a name come on top.
UniProt P61956: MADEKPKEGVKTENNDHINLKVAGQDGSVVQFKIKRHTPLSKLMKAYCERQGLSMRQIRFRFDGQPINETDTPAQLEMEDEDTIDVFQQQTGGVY

Columns and labels:
[1] = target: T1, Flag-tagged GNL3 SIM mutant (GNL3^SIMm) (human) (UniProt Q9BVP2); test: co-IP; anti-Flag (M2) agarose beads, 4 C, 4 h, on lysates of transfected U2OS cells; NP40 lysis buffer (50 mM Tris-HCl pH 8.0, 0.5% NP-40, 1 mM EDTA, 150 mM NaCl) with 20 mM NEM and 5 mM IAA; DMSO or 20 uM ETO; USP36 siRNA in one experiment; immunoblot
T1 sequence: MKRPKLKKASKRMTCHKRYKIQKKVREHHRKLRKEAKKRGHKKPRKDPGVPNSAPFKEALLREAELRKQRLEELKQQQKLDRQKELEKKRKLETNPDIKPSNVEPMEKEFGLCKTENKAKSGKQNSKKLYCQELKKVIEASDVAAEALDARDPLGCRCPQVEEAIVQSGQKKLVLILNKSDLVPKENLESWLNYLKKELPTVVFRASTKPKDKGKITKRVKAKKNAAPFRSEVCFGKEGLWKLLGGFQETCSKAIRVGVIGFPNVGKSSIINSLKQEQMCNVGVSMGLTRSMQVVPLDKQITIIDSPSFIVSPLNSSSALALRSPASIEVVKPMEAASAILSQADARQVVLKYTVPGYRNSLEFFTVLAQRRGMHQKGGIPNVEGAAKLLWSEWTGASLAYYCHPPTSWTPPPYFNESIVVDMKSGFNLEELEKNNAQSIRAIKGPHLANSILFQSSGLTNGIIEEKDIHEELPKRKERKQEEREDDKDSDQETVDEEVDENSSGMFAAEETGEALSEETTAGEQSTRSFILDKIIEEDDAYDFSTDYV

[2] = target: T2, Flag-tagged GNL3 (Flag-GNL3), wild type (human) (UniProt Q9BVP2); test: as above
T2 sequence: T1 sequence with A144V, A145L, A147V

binding [1]: no binding
binding [2]: binds
Substance: SUMO2, endogenous (from UniProt P61956)

Changes are numbered by the printed parent chain. Results are given in words; binding and its absence hold for the method and conditions named. Binding seen in cells or lysates may run through a third protein. For some assays here: Binding can be weak; no strength is given. Where a sequence is shown, tags or fusion partners need not be part of it.
